This passage reports binding results from paper PMC1950564.

Amino acid sequences for entries named in this document (tags omitted). Residues count along the entry.
UniProt Q92854, residues 22-862: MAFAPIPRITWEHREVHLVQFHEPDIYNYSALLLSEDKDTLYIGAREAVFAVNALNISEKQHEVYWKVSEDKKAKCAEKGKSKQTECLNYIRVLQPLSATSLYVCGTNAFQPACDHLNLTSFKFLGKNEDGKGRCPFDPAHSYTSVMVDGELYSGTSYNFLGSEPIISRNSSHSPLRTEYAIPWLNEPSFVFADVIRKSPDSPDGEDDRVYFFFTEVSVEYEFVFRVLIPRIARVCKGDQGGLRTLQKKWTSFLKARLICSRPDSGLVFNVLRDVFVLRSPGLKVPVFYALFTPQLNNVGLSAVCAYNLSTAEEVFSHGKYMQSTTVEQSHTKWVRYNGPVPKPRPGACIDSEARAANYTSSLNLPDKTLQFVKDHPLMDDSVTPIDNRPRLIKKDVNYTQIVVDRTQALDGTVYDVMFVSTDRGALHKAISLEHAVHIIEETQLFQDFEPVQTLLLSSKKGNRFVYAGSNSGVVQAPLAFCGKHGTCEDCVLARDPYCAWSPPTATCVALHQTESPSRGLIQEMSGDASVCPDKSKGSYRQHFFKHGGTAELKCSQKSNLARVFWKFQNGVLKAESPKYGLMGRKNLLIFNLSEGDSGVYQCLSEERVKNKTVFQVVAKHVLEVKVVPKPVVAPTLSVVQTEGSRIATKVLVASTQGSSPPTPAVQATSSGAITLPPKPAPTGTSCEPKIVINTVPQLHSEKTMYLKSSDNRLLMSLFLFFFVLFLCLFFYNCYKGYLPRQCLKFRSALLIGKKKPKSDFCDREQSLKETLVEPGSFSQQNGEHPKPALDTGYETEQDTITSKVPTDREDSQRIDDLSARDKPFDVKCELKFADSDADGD

These are yes or no findings as the source states them, for the method shown. Some binding calls cover weakened binding; strength is not graded here.

In this assay the target is CD100 (Semaphorin 4D) (human (endogenous in YTS and NK cells)) (UniProt Q92854). Briefly: two-dimensional non-reducing/reducing SDS-PAGE of an immunoprecipitate; lysate of surface 125I-labelled YTS cells (0.5% Nonidet P-40, 10 mM iodoacetamide, 5 mM EDTA, PBS pH 8.3) immunoprecipitated with mAb 172.4; first dimension non-reducing, second dimension reducing; autoradiography.

With “CD100 (Semaphorin 4D) (from UniProt Q92854 22-862)”, the binding result is “binds”.
